We go through two molecules from article doi:10.1101/2025.01.13.632716.

No constants are given. Whether binding was seen depends on the method and setting. Binding can be weak; no strength is given. Sequences can lack the tags named with a protein. For part of these data: In cells and extracts the contact can be indirect.

In experiment [1] the target is IncA fused to T25 fragment of adenylate cyclase at N-terminus (Caulobacter crescentus). The experiment can be described thus: two-hybrid.
The target of experiment [2] is IncA^D115A fused to T25 fragment of adenylate cyclase at the N-terminus (Caulobacter crescentus). As to the kind of experiment: two-hybrid.
In experiment [3] the target is C-terminal tandem affinity purification (TAP)-tagged IncA (Caulobacter crescentus). The experiment can be described thus: co-IP.

B1: DnaN fused to the T18 fragment of adenylate cyclase at the C-terminus (protein, UniProt B8GXP6 1-372)
chain: MKLTIERAALLKALGHVQSVVERRNTIPILSNILLSAEGDRLSFSATDLDMEIIDEGFAQIDVPGQITAPAHTLYEIVRKLPDGADVSLSFSGDDPRLVIQAGRSRFNLPVLPAGDFPVMSSDGLSSRIAVDTNELIRLIDKTRFAISTEETRYYLNGLYVHTVNEGGETKLRAVATDGHRLALAEMPAPEGAVGIPGVIVPRKTIAEARRLMESAGETVDLQVSPQKVRFEFGAAALTSKVIDGAFPDYMRVIPRDNAKILTLDNDLFAKAVDRVATISAEKSRSVKLAVEPGRITLTVRNMEAGQAVEEVEVDYDGEPFEIGFNARYLLDVCGQIAGPQAEFRFADPASPTLVVDPVDPGVKYVLMPLRV
On to B1, for which the binding result in experiment [1] and in experiment [2] was “binds” each time.

B2: DnaN-YFP (protein, UniProt B8GXP6 1-372)
chain: MKLTIERAALLKALGHVQSVVERRNTIPILSNILLSAEGDRLSFSATDLDMEIIDEGFAQIDVPGQITAPAHTLYEIVRKLPDGADVSLSFSGDDPRLVIQAGRSRFNLPVLPAGDFPVMSSDGLSSRIAVDTNELIRLIDKTRFAISTEETRYYLNGLYVHTVNEGGETKLRAVATDGHRLALAEMPAPEGAVGIPGVIVPRKTIAEARRLMESAGETVDLQVSPQKVRFEFGAAALTSKVIDGAFPDYMRVIPRDNAKILTLDNDLFAKAVDRVATISAEKSRSVKLAVEPGRITLTVRNMEAGQAVEEVEVDYDGEPFEIGFNARYLLDVCGQIAGPQAEFRFADPASPTLVVDPVDPGVKYVLMPLRV
For B2, the binding entry in experiment [3] is recorded as “binds”.
